According to article PMC7931231:
Numbering of substitutions follows the chain as printed. No constants are given. Whether binding was seen depends on the method and setting. In cells and extracts the contact can be indirect. Some results given as binding are weak or reduced against the parent protein; the word gives no strength. For some assays here: Sequences can lack the tags named with a protein.

How the values were obtained:
[1] = target: T1, Flag-NEK5 K33A (NEK5^K33A, kinase-dead NEK5) (human) (UniProt Q6P3R8); test: co-IP; Flag-NEK5^K33A as bait on anti-FLAG M2 agarose, total cell lysate of Flp-In T-REx 293T NEK5^K33A cells, blot with anti-LonP1
T1 sequence: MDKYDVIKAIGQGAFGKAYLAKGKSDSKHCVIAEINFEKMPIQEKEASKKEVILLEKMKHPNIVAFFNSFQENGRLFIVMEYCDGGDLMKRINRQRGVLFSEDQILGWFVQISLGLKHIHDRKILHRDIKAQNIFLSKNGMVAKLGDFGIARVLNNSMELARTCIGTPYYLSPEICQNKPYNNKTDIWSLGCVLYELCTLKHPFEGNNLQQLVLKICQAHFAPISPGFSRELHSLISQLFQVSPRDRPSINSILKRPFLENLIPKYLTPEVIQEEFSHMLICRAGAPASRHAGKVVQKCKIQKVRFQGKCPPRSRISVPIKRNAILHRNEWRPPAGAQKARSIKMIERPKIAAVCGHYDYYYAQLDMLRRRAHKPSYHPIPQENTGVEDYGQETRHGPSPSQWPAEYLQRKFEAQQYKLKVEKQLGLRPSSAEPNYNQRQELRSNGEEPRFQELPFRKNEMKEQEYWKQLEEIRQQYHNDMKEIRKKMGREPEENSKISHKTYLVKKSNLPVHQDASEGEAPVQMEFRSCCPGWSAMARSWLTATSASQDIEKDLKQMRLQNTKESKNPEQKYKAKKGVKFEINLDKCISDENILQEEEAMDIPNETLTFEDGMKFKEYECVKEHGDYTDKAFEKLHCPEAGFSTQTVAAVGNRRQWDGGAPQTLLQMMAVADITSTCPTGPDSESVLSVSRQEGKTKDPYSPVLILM

[2] = target: T2, Flag-NEK5 wild-type (NEK5^WT) (human) (UniProt Q6P3R8); test: co-IP; Flag-NEK5^WT as bait on anti-FLAG M2 agarose, 3 h at 4 °C, crude mitochondrial extract of Flp-In T-REx 293T cells, eluted with 3x FLAG peptide, blot with anti-LonP1
T2 sequence: T1 sequence with A33K

LonP1-flag = target: T3, LonP1-flag (UniProt P36776); test: co-IP; reverse co-IP: LonP1-flag as bait on anti-FLAG M2 agarose, 1 h at 4 °C, lysate of co-transfected HEK293T cells, eluted by boiling in sample buffer, blot with anti-Myc and anti-NEK5
T3 sequence: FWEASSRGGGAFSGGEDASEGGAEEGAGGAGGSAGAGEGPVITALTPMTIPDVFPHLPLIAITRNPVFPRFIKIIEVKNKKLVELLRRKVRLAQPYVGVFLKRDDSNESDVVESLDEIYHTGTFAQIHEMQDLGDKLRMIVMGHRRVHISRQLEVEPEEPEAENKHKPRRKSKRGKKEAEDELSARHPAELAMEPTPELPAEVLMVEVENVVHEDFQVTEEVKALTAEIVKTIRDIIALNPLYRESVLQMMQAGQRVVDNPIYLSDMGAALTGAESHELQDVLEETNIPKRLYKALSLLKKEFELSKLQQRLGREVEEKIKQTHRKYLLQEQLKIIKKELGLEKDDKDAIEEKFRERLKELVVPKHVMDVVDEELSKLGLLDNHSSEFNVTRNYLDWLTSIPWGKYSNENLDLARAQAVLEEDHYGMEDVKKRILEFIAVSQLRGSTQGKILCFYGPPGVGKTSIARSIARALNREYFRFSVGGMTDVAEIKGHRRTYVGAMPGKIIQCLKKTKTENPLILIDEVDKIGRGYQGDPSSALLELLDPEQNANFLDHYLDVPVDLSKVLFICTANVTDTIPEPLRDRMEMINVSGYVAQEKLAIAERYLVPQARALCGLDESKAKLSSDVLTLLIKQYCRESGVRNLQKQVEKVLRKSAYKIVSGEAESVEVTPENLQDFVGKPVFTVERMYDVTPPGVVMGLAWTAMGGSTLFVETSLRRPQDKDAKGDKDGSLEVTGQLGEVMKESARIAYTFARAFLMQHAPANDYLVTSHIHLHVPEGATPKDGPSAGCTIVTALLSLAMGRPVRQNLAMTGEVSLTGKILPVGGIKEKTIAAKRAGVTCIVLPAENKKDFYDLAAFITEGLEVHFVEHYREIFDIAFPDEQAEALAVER

[3] = target: T4, LonP1 (endogenous, U2OS cells) (human (endogenous in U2OS)) (UniProt P36776); test: proximity ligation; Duolink PLA in fixed U2OS cells with anti-NEK5 and anti-LonP1 or anti-TFAM; cells untransfected or transfected with pcDNA3.2LonP1-flag for 48 h; untreated or treated with rotenone 2 μM for 1 h
T4 sequence: T3 sequence

[4] = target: T5, TFAM (transcription factor A, mitochondrial; endogenous, U2OS cells) (human (endogenous in U2OS)) (UniProt Q00059); test: as above
T5 sequence: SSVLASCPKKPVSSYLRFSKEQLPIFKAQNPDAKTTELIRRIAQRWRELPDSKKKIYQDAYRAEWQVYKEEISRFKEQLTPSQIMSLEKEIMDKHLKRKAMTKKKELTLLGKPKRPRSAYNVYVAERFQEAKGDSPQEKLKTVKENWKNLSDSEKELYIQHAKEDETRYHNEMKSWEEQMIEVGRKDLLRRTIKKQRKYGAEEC

B1: LonP1 (endogenous, Flp-In T-REx 293T cells) (protein, UniProt P36776 68-959)
chain: T3 sequence
binding [1]: binds
binding [2]: binds

B2: MYC-NEK5^WT-BioID (protein, UniProt Q6P3R8 1-708)
chain: T1 sequence with A33K
binding (LonP1-flag): binds

B3: NEK5 (endogenous, U2OS cells) (protein, UniProt Q6P3R8 1-708)
chain: T1 sequence with A33K
binding [3]: binds
binding [4]: binds
